The assay has as its target T1, human FGFR1c extracellular domain (human, UniProt P11362 22-376).
T1 construct: fibroblast growth factor receptor 1, c isoform (FGFR1c), human, recombinant extracellular domain; In the functional rows the receptor stood whole on transfected cells; source: purified recombinant
T1 sequence (looked up): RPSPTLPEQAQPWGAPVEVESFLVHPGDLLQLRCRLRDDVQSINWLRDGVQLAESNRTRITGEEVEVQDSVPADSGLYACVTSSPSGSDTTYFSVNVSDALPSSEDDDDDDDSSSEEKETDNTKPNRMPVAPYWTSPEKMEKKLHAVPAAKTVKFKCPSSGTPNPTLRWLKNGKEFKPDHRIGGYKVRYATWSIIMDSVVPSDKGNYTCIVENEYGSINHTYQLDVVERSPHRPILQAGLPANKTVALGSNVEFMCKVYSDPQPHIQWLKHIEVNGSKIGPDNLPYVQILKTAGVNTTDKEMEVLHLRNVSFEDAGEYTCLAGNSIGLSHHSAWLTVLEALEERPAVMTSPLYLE
Put plainly: ELISA; target proteins coated on a MaxiSorp 96-well plate at 20 nM overnight at 4°C; Avimers titrated in 20 mM Tris-HCl (pH 7.4), 150 mM NaCl, 1 mM CaCl2; bound Avimer detected via its N-terminal HA tag with an anti-tag antibody-HRP, TMB, OD 450 nm. The conditions noted are these: both partners purified. On the technique in general: An ELISA detects its analyte on a solid surface through an enzyme-linked reagent.

B1: FGFR1c/β-Klotho bispecific Avimer C3209 (designed binder)
chain: CGEGLFTCRSTNICISHAWVCDGVDDCEDNSDENNCSAPASEPPGSLCGADQFRCGNGSCVPRAWRCDGVDDCGDGSDEAPEICETPTCQSNEFRCRSGRCIPQHWLCDGLNDCGDGSDESQQCSAPASEPPGSL
notes: C2987 at the N-terminus fused to C2240 (C2240 at the C-terminus) on one polypeptide chain; not shown: influenza hemagglutinin (HA) tag, N-terminal, kept
As to B1, the binding result was “binds”.

The values are drawn from paper PMC3632592, “FGF21 Can Be Mimicked In Vitro and In Vivo by a Novel Anti-FGFR1c/β-Klotho Bispecific Protein” (PLoS ONE, 2013).
